Reference: PubChem BioAssay AID2685 (National Center for Advancing Translational Sciences (NCATS), 2010)
The other results are listed elsewhere or left out. The main result of the screen is listed elsewhere. These columns were measured beside it and carry no call. Compounds called inactive in the main read-out are mostly missing here. Potencies come from curve fits of mixed quality, noted in brackets. Where a SMILES comes first, the peptide text is derived from it. The star is where a group is joined. Boc = CC(C)(C)OC(=O)*; OBn = c1ccc(CO*)cc1

Test: qHTS Assay for Lipid Storage Modulators in Drosophila S3 Cells;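 as to cell number change: cells counted by Cell Tracker Red CMTPX staining in the red channel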
Conditions: BODIPY lipid droplet fluorescence, 18-24 h; for cell number change: measured here: cell count max response, cells fed with added oleic acid
Outline: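 Laser-scanning cytometry quantifies lipid droplet accumulation (500–530 nm total intensity; droplet/cell object ratio) in oleic acid-fed (400 uM added) Drosophila S3 cells treated with a concentration series. 20 uM Triacsin C defined 100% inhibition.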

[1] = measured here: lipid fluorescence (Fed channel) AC50, cells fed with added oleic acid
[2] = measured here: cell number channel AC50, cells fed with added oleic acid

Cc1ccc(S(=O)(=O)NCC(=O)N(CC(=O)NCc2ccco2)Cc2ccccc2)cc1
cell number change: 16.7%
AC50 [1]: 0.00461 µM [falling, full curve, poor fit]

CCN1C(=O)[C@@H]2[C@@H](c3ccc(-c4ccc(C(C)=O)cc4)cc3)N3CCCC[C@@]3(C(=O)OC)[C@@H]2C1=O
cell number change: -2.31%
AC50 [1]: 23.1 µM [falling, partial curve, poor fit]

O=C(/C=C/c1ccco1)Nc1ccc(-c2nc3ccccc3[nH]2)cc1
cell number change: 4.39%
AC50 [1]: 0.0058 µM [rising, full curve, poor fit]

CC(C)CC(NC(=O)C(NC(=O)OC(C)(C)C)C(C)C)C(=O)NC(CCC(=O)OCc1ccccc1)C(N)=O (stereo not drawn) (Boc-Val-Leu-Glu(OBn)-NH2; configuration not given here)
cell number change: -21.2%

COc1ccc(OC)c(C2C(C(=O)c3ccc(C)o3)=C(O)C(=O)N2c2cc(C)on2)c1 (stereo unspecified)
cell number change: -10.1%
AC50 [1]: 6.51 µM [falling, single point]

COc1ccc(C(=O)Nc2ccccc2C(=O)NCCCn2ccnc2)cc1
cell number change: 1.03%
AC50 [1]: 0.116 µM [rising, full curve]

COCCNC(=S)NNC(=O)c1ccc(-n2cnnn2)cc1
cell number change: 36.5%
AC50 [2]: 29.1 µM [rising, single point]

CN1CCN(C2=Cc3ccccc3Sc3cc(F)c(Cl)cc32)CC1
cell number change: -69.5%
AC50 [2]: 18.4 µM [falling, partial curve]
AC50 [1]: 14.6 µM [falling, partial curve]

CCCCNc1nc(-c2ccccc2)cc(C(F)(F)F)c1C(N)=O
cell number change: -52.5%
AC50 [2]: 20.6 µM [falling, partial curve, poor fit]
AC50 [1]: 20.6 µM [falling, partial curve, poor fit]

CC(=O)NC1=NC(=O)/C(=C/c2cc(C)n(-c3cccc(C(=O)O)c3)c2C)S1
cell number change: 36.7%
AC50 [1]: 29.1 µM [rising, single point]

COc1cccc(NC(=O)CN(C)C(=O)CCCc2c[nH]c3ccccc23)c1
cell number change: -34.6%
AC50 [2]: 23.1 µM [falling, partial curve, poor fit]
AC50 [1]: 29.1 µM [falling, single point]

CC(C)CCNC(=O)COc1cccc2c1OC(C)(C)C2
cell number change: 48.8%
AC50 [2]: 20.6 µM [rising, single point]

CCc1nnc(NC(=O)CCC(=O)N2CCN(c3cc(Cl)ccc3C)CC2)s1
AC50 [2]: 4.11 µM [falling, partial curve, poor fit]

COc1cc2c(cc1NC(=O)c1ccc(C(C)(C)C)cc1)CCCC2
AC50 [1]: 3.66 µM [falling, full curve]

Cc1ccc(CN(C)C(=O)c2ccccc2Sc2ccccc2C#N)cc1
AC50 [1]: 0.58 µM [falling, single point]

CCC1(C)Cc2c(sc3nnn(CC(=O)Nc4cccc5ccccc45)c(=O)c23)CO1 (stereo unspecified)
cell number change: -12.8%
AC50 [1]: 0.00461 µM [rising, full curve, poor fit]

Cn1c2ccccc2c(=O)c2c(=O)n(Cc3ccco3)c(COc3ccccc3)nc21
cell number change: 18.2%
AC50 [1]: 6.51 µM [rising, partial curve]

Cc1cc(C(=O)N2CCN(c3cc(Cl)ccc3C)CC2)on1
cell number change: 4.32%
AC50 [1]: 16.4 µM [falling, single point]

O=C(CC1C(=O)NCCN1Cc1ccc(-c2ccccc2)cc1)NCc1ccncc1 (stereo unspecified)
cell number change: 23%
AC50 [1]: 16.4 µM [rising, partial curve, poor fit]

CCCCN(C(=O)c1ccc2c(c1)NC(=O)CS2)c1ccccc1
cell number change: 4.6%

CCc1ccc(C(=O)c2oc3nc(C)cc(C)c3c2N)cc1
AC50 [1]: 32.6 µM [falling, partial curve, poor fit]

CCN1CCN(c2ccccc2NC(=O)C(C)Oc2ccc(C(C)=O)cc2)CC1 (stereo unspecified)
AC50 [1]: 23.1 µM [falling, partial curve]

Cc1cccc(Nc2c(-c3ccc(N4CCOCC4)cc3)nc3ncccn23)c1
cell number change: -14.7%
AC50 [1]: 0.731 µM [falling, full curve, poor fit]

CCOC(=O)c1c(-c2ccc(C)cc2)csc1NC(=O)/C(C#N)=C/c1ccc(O)c(OC)c1
AC50 [1]: 10.3 µM [falling, partial curve]

O=C(CSc1nc(=O)n(Cc2ccccn2)c2c1CCC2)Nc1ccc(F)cc1F
cell number change: 19.3%

COc1cc(C)ccc1OCC(=O)Nc1ccccc1N1CCOCC1
cell number change: 7.43%
AC50 [1]: 6.51 µM [rising, partial curve, poor fit]

COCCCN1C(=O)C(=O)/C(=C(/O)c2ccc(S(=O)(=O)N3CCOCC3)cc2)C1c1ccc(F)cc1 (stereo unspecified)
cell number change: 90.8%
AC50 [2]: 23.1 µM [rising, partial curve]

CCN(c1ccccc1)S(=O)(=O)c1ccc2ccccc2c1
cell number change: 28.1%
AC50 [1]: 9.2 µM [rising, partial curve, poor fit]

Cc1ccc2[nH]c(O)c(N=O)c2c1
cell number change: -2.77%
AC50 [2]: 5.8 µM [falling, single point]
AC50 [1]: 3.66 µM [falling, partial curve, poor fit]

CCOC(=O)C1CCCN(Cc2c(Cl)cccc2Cl)C1 (stereo unspecified)
cell number change: -23.6%
AC50 [1]: 4.11 µM [falling, full curve, poor fit]

COc1ccnc(Oc2ccc(F)cc2)c1-c1ncn[nH]1
cell number change: -42.6%
AC50 [2]: 18.4 µM [falling, single point]

COCCN1C(=O)N(c2cccc(OC)c2)C(=O)C1CC(=O)Nc1ccc(OC)cc1 (stereo unspecified)
cell number change: -22.1%
AC50 [1]: 29.1 µM [rising, single point]

O=c1c2ccccc2nc2n1C(CSc1ccc(F)cc1)CN2 (stereo unspecified)
cell number change: 21.8%
AC50 [1]: 29.1 µM [rising, single point]

OC(COCCOc1ccc(Br)cc1)CN1CCN(Cc2ccccc2)CC1 (stereo unspecified)
AC50 [1]: 1.84 µM [rising, partial curve]

COc1cccc(N2CCN(C(=O)Cn3c(=O)oc4ccccc43)CC2)c1
cell number change: -18.4%
AC50 [1]: 29.1 µM [falling, single point]

Cc1c[n+](CC(=O)c2ccccc2)c(C)cn1
cell number change: -27%
AC50 [1]: 0.58 µM [falling, single point]

Cc1ccc(-c2noc(CCC(=O)NCCN3CCOCC3)n2)cc1
cell number change: 11.2%
AC50 [1]: 0.146 µM [falling, full curve]

CCn1c(CCNC(=O)c2ccc(OC)cc2)nnc1SCc1ccc(Cl)c(Cl)c1
cell number change: -44.5%
AC50 [2]: 16.4 µM [falling, partial curve, poor fit]
AC50 [1]: 14.6 µM [falling, partial curve]

Cc1ccccc1OCC(=O)NCC(c1ccco1)N1CCCCC1 (stereo unspecified)
cell number change: -5.52%
AC50 [1]: 0.13 µM [rising, full curve, poor fit]

C=CCN1C(=O)C(CC(=O)Nc2ccc(OC)cc2)SC1=Nc1ccc(S(N)(=O)=O)cc1 (stereo unspecified)
cell number change: -1.33%
AC50 [1]: 0.00517 µM [falling, full curve, poor fit]

CCC(=O)c1ccc(OCc2ccccc2)c(OC)c1
cell number change: 6.58%
AC50 [1]: 1.46 µM [rising, full curve, poor fit]

COc1cc(C2Nc3ccc4ncccc4c3C3=C2C(=O)CCC3)ccc1O (stereo unspecified)
AC50 [2]: 1.84 µM [rising, partial curve]

COC(=O)C(CC(=O)c1ccc(Br)cc1)n1nc(C)cc1C (stereo unspecified)
cell number change: -36.2%
AC50 [2]: 6.51 µM [falling, partial curve, poor fit]
AC50 [1]: 29.1 µM [falling, single point]

Cc1ccc(NC(=O)N2CCCC2c2cccs2)cc1 (stereo unspecified)
AC50 [1]: 23.1 µM [falling, partial curve]

CC(=O)Nc1ccc(NC(=O)C(C)OC(=O)c2cccs2)cc1 (stereo unspecified)
cell number change: -9.64%
AC50 [1]: 0.461 µM [falling, full curve, poor fit]

CSc1ncccc1C(=O)OCC(=O)Nc1cc(C(F)(F)F)ccc1N1CCOCC1
cell number change: -31.2%
AC50 [2]: 14.6 µM [falling, partial curve]
AC50 [1]: 20.6 µM [falling, single point]

Fc1ccc(-c2onc3ccc(C4OCCO4)cc23)cc1
AC50 [1]: 0.651 µM [rising, single point]

Cc1nn(-c2ccc(F)cc2)c(N)c1C1(O)C(=O)Nc2ccccc21 (stereo unspecified)
cell number change: -40.3%

O=C(CN(C1CCCCC1)C1CCCCC1)N1CCc2ccccc2C1
cell number change: -8.02%

COC(=O)Nc1nc(C)c(C(=O)N(C)C)s1
cell number change: -2.01%
AC50 [1]: 1.84 µM [falling, full curve]

O=C(NCCCN1CCCC1=O)Nc1ccc([N+](=O)[O-])cc1
cell number change: 27.8%
AC50 [1]: 29.1 µM [falling, single point]

COC(=O)Cc1c[nH]c2cccc(OCC(O)CN(Cc3ccc([N+](=O)[O-])cc3)C(C)(C)C)c12 (stereo unspecified)
cell number change: -37.7%
AC50 [2]: 23.1 µM [falling, partial curve]

Cc1ccc(S(=O)(=O)Nc2cc(=O)[nH]c(SCC(=O)Nc3cccc(C)c3)n2)cc1
cell number change: -45%
AC50 [2]: 9.2 µM [falling, partial curve]
AC50 [1]: 6.51 µM [falling, partial curve]

NC(=S)N/N=C/c1coc2ccc(Br)cc2c1=O
cell number change: -16.7%
AC50 [2]: 0.116 µM [falling, full curve, poor fit]
AC50 [1]: 6.51 µM [falling, partial curve, poor fit]

C=CCn1c(SCC(=O)Nc2cc(NC(C)=O)ccc2OC)nnc1-c1cccnc1
cell number change: -29.3%
AC50 [2]: 2.06 µM [falling, full curve, poor fit]

Cc1ccc(NC(=O)n2ncc3c(C)cccc32)c(C)c1
cell number change: 15.5%

COc1ccc(S(=O)(=O)N/N=C(/C)c2ccncc2)cc1OC
AC50 [1]: 0.651 µM [rising, partial curve, poor fit]
